Record: PubChem BioAssay AID1159584 (Peter MacCallum Cancer Centre, 2016)
The whole screen tested about 18,000 reagents; shown is an unselected part. No sequences are given here. Not given: the amount of reagent, the time to read-out.

Test: 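Knock-downs that harm CDH1-null cells more than parental MCF10A cells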 (primary screen)
Cell system: human MCF10A breast epithelial cells, parental and CDH1-null
Knock-down reagent: siRNA against human genes
Measurement: 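Cell viability by CellTiter-Glo ATP luminescence, each line scaled to the mean of mock wells across plates, then CDH1-null over parental ratio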
Reading the numbers: CDH1-null / parental viability ratio: higher = CDH1-null cells survive relatively better than parental; CDH1-null viability vs mock: higher = more viable CDH1-null cells; parental viability vs mock: higher = more viable parental cells

Target gene,CDH1-null / parental viability ratio,CDH1-null viability vs mock (fraction of mock),parental viability vs mock (fraction of mock)
CALML3 (calmodulin like 3),1.08,0.65,0.6
CYP2C8 (cytochrome P450 family 2 subfamily C member 8),1,1,1
LBX1 (ladybird homeobox 1),1,0.9,0.9
FYRD1 (FYRN and FYRC domains INO80 complex interactor 1),1.49,0.88,0.59
HACD4 (3-hydroxyacyl-CoA dehydratase 4),1.09,1.2,1.1
PCSK4 (proprotein convertase subtilisin/kexin type 4),1.05,0.86,0.82
ANGPTL7 (angiopoietin like 7),0.82,0.74,0.9
ERRFI1 (ERBB receptor feedback inhibitor 1),1.43,0.66,0.46
MED30 (mediator complex subunit 30),0.88,0.6,0.68
ARHGAP18 (Rho GTPase activating protein 18),0.73,0.44,0.6
VAV2 (vav guanine nucleotide exchange factor 2),0.94,0.76,0.81
"DEPDC5 (DEP domain containing 5, GATOR1 subcomplex subunit)",1.23,1.08,0.88
VAMP3 (vesicle associated membrane protein 3),1.23,0.8,0.65
FOXQ1 (forkhead box Q1),1.11,0.82,0.74
MAP7D2 (MAP7 domain containing 2),0.97,0.86,0.89
PLCZ1 (phospholipase C zeta 1),1.09,1.06,0.97
GARIN3 (golgi associated RAB2 interactor family member 3),1.18,0.87,0.74
RASA1 (RAS p21 protein activator 1),0.67,0.61,0.91
FAU (FAU ubiquitin like and ribosomal protein S30 fusion),1.29,0.44,0.34
IDNK (IDNK gluconokinase),0.86,0.76,0.88
TSEN2 (tRNA splicing endonuclease subunit 2),0.99,0.9,0.91
PITX3 (paired like homeodomain 3),0.7,0.62,0.88
TRMT2A (tRNA methyltransferase 2A),1.11,0.4,0.36
OAS1 (2'-5'-oligoadenylate synthetase 1),1.17,0.82,0.7
KIR2DS3,0.7,0.52,0.74
"CNST (consortin, connexin sorting protein)",0.96,0.73,0.76
H2AC14 (H2A clustered histone 14),1.22,1.12,0.92
PRPF38B (pre-mRNA processing factor 38B),0.89,0.74,0.83
CRIP1 (cysteine rich protein 1),1.1,0.54,0.49
COX8A (cytochrome c oxidase subunit 8A),1.01,1.03,1.02
SNU13 (small nuclear ribonucleoprotein 13),1.21,0.86,0.71
PRELP (proline and arginine rich end leucine rich repeat protein),0.97,0.62,0.64
CDK9 (cyclin dependent kinase 9),1,0.77,0.77
PPP2R3A (protein phosphatase 2 regulatory subunit B''alpha),1.43,0.8,0.56
PRMT3 (protein arginine methyltransferase 3),1.04,1.08,1.04
NOS1 (nitric oxide synthase 1),0.96,0.9,0.94
CST5 (cystatin D),1.29,0.44,0.34
LINGO4 (leucine rich repeat and Ig domain containing 4),1.24,0.93,0.75
FNDC8 (fibronectin type III domain containing 8),1.15,0.63,0.55
XTBD1 (XRN2 binding domain containing 1),0.83,0.72,0.87
AQP5 (aquaporin 5),1.04,0.83,0.8
RAD51AP1 (RAD51 associated protein 1),1.1,1,0.91
BTNL3 (butyrophilin like 3),1.25,0.9,0.72
SMYD2 (SET and MYND domain containing 2),0.79,0.72,0.91
MYO5A (myosin VA),0.97,0.92,0.95
RPS18 (ribosomal protein S18),1.19,0.31,0.26
WNT2B (Wnt family member 2B),1.08,1.15,1.06
CACNA2D4,0.89,0.67,0.75
CELF4 (CUGBP Elav-like family member 4),1.08,0.93,0.86
ANKRD9 (ankyrin repeat domain 9),0.96,0.85,0.89
ALK (ALK receptor tyrosine kinase),0.92,0.76,0.83
CD8A (CD8 subunit alpha),0.81,0.34,0.42
COMMD5 (COMM domain containing 5),0.91,0.64,0.7
OR2U1P (olfactory receptor family 2 subfamily U member 1 pseudogene),1.24,0.94,0.76
KRABD2 (KRAB domain containing 2),1.3,0.6,0.46
VRK3 (VRK serine/threonine kinase 3),1.08,0.98,0.91
EPX (eosinophil peroxidase),0.94,0.76,0.81
LCE4A (late cornified envelope 4A),0.87,0.54,0.62
ZC3H3 (zinc finger CCCH-type containing 3),0.84,0.57,0.68
RRM1 (ribonucleotide reductase catalytic subunit M1),0.89,0.48,0.54
ACADL (acyl-CoA dehydrogenase long chain),0.64,0.62,0.97
PRR23E (PRR23 family member E),1.18,0.59,0.5
FAM222A (family with sequence similarity 222 member A),0.94,0.62,0.66
CELA2B (chymotrypsin like elastase 2B),1.18,0.65,0.55
POU4F2 (POU class 4 homeobox 2),1.12,1.12,1
TGM5 (transglutaminase 5),0.91,0.89,0.98
ABT1 (activator of basal transcription 1),0.89,0.82,0.92
BAG3 (BAG cochaperone 3),0.98,1,1.02

As entered above.
Value of LCE4A (late cornified envelope 4A) under “parental viability vs mock (fraction of mock)”: 0.62
Under “CDH1-null viability vs mock (fraction of mock)”, CD8A (CD8 subunit alpha) shows 0.34
Under “parental viability vs mock (fraction of mock)”, VAMP3 (vesicle associated membrane protein 3) is entered as 0.65
RAD51AP1 (RAD51 associated protein 1), CDH1-null / parental viability ratio → 1.1
FAM222A (family with sequence similarity 222 member A), parental viability vs mock (fraction of mock): 0.66
Entry of AQP5 (aquaporin 5) in “CDH1-null / parental viability ratio”: 1.04
